Measurements reported in PubChem BioAssay AID743454 (Peter MacCallum Cancer Centre, 2014).

Purpose: 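Search for knock-downs that restore vorinostat killing in resistant colon cancer cells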 (primary screen)
Cell system: human HCT116-VR colon cancer cells, selected for vorinostat resistance
Reagent: siRNA pool against human genes, 40 nM siRNA pool
Timing: vorinostat for 24 h, read-out about 72 h after transfection
Conditions: vorinostat at 2.5 µM final
Detection: 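Cell viability by CellTiter-Fluor and caspase 3/7 activity by luminescence, each scaled to mock wells per plate, duplicates averaged, then robust z-scored over all plates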
Direction: viability robust z-score: higher = more viable cells than screen typical; caspase robust z-score: higher = more caspase 3/7 activity than screen typical
Hit rule: 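a knock-down is a hit when classed RV1 or RV2 for lowered viability, or CA1 or CA2 for caspase activation; those lethal without drug were dropped; hits were retested singly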
The whole screen tested about 18,000 reagents; this is a part drawn at random. 450 of them (2.5%) were called active. 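Single biological run; no consistent viability z cut-off exists, so the class columns, not z-scores, define the calls.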 A number with no mark means an inactive call. No sequences are given here.

| gene symbol | viability hit class | caspase hit class | viability robust z-score | caspase robust z-score |
| --- | --- | --- | --- | --- |
| CNKSR2 | no change | no change | 0.26 | -0.1 |
| CCDC14 | no change | no change | 0.22 | -1.18 |
| SETX | no change | no change | -4.6 | 2.82 |
| SPANXN5 | no change | no change | -0.73 | -1.16 |
| SGCG | no change | no change | 0.51 | -0.06 |
| SPHAR (retired record) | no change | no change | 1.49 | -0.7 |
| OR6C1 | no change | no change | -1.12 | -0.79 |
| HOXB3 | no change | no change | 0.56 | 3.6 |
| OBP2A | no change | no change | 1.07 | 1.37 |
| NUAK1 | no change | no change | -1.31 | 2.91 |
| DOC2B | no change | no change | 0.1 | -0.38 |
| RTP5 | no change | no change | -0.27 | -0.47 |
| BUB3 | no change | no change | -0.05 | 1.42 |
| KCND2 | no change | no change | -0.86 | -0.59 |
| ZMYND15 | no change | no change | -0.58 | -0.3 |
| TTC9C | no change | no change | 1 | -0.14 |
| RNF167 | no change (active) | CA1 (caspase activation) | -0.98 | 11.2 |
| FKBP1A | no change | no change | -2.02 | 0.46 |
| SLC61A1 | no change | no change | 0.12 | 3.38 |
| TMEM131L | no change | no change | 0.71 | 0.08 |

Reformatted: entries from further up
gene symbol	viability hit class	caspase hit class	viability robust z-score	caspase robust z-score
NUAK1	no change	no change	-1.31	2.91
DOC2B	no change	no change	0.1	-0.38
RTP5	no change	no change	-0.27	-0.47
BUB3	no change	no change	-0.05	1.42

The results go on.
| gene symbol | viability hit class | caspase hit class | viability robust z-score | caspase robust z-score |
| --- | --- | --- | --- | --- |
| SPATA13 | no change | no change | 1.32 | 0.18 |
| OAZ1 | no change | no change | 0.13 | 0.66 |
| B3GNT3 | no change | no change | 0.39 | 0.36 |
| TRAF3IP3 | no change | no change | -0.44 | -0.32 |
| RHOH | no change | no change | 0.9 | -0.62 |
| ARL2 | no change | no change | -0.43 | -1 |
| ARL4C | no change | no change | -1.07 | 4.5 |
| TCL1B | no change | no change | 0 | 0.42 |
| OR6C6 | no change | no change | 0.35 | 0.57 |
| POU3F2 | no change | no change | -1.14 | 1.96 |
| PAX4 | no change | no change | -0.02 | -0.99 |
| ALKBH4 | no change | no change | -1.03 | 1.02 |
| C9orf78 | no change | no change | 1.43 | -0.52 |
| ZSWIM2 | no change | no change | -0.26 | -0.66 |
| SLC9A1 | no change | no change | 1.18 | 0.43 |
| YME1L1 | no change | no change | -2.17 | -0.66 |
| TMEM50A | no change | no change | 0.9 | 0.54 |
| PTPRN2 | no change | no change | 0.01 | 0.24 |
| MAZ | no change | no change | -0.18 | 3.65 |
| ORMDL3 | no change | no change | -0.48 | 2.08 |
| TRAM1 | no change | no change | 0.66 | 2.9 |
| BTBD1 | no change | no change | -1.77 | -1.27 |
| BORA | no change | no change | 0.04 | -0.46 |
| DENND3 | no change | no change | -0.92 | 0.58 |
| CYB5R5 | no change | no change | 0.83 | 2.19 |
| CYBA | no change | no change | -0.56 | -0.83 |
| ZBTB43 | no change | no change | -0.73 | 3.39 |
| KPRP | no change | no change | -3.48 | -0.59 |
| ZNF233 | no change | no change | -0.01 | -1.33 |
| RRAS2 | no change | no change | -0.04 | -0.35 |
| CLRN1 | no change | no change | -0.29 | 2.31 |
| MUC13 | no change | no change | 0.58 | 0.49 |
| CIDEB | no change | no change | 0.47 | -0.54 |
| PRXL2C | no change | no change | 0.27 | -0.04 |
| COL10A1 | no change | no change | -2.12 | 0.08 |
| MRM3 | no change | no change | 0.92 | -0.41 |
| PGBD3 | no change | no change | -0.15 | -0.57 |
